{"sequences": {"note": "Chains of the proteins cited; added tags and fusions are not shown.", "UniProt Q8BG36": "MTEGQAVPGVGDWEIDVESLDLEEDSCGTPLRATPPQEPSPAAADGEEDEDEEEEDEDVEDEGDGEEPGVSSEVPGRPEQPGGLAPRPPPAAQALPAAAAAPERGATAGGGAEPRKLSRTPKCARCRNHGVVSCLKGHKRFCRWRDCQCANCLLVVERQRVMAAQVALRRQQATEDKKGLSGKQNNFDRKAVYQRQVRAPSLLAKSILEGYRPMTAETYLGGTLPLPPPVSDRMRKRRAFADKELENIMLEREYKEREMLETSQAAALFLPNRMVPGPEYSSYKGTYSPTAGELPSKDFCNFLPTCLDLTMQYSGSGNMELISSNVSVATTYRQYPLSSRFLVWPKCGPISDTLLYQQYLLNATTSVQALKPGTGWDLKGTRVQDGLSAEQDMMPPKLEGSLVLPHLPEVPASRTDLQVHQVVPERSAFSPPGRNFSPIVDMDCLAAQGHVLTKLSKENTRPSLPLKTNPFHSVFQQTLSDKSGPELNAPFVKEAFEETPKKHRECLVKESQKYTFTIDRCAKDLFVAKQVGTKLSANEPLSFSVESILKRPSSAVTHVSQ", "UniProt Q08775": "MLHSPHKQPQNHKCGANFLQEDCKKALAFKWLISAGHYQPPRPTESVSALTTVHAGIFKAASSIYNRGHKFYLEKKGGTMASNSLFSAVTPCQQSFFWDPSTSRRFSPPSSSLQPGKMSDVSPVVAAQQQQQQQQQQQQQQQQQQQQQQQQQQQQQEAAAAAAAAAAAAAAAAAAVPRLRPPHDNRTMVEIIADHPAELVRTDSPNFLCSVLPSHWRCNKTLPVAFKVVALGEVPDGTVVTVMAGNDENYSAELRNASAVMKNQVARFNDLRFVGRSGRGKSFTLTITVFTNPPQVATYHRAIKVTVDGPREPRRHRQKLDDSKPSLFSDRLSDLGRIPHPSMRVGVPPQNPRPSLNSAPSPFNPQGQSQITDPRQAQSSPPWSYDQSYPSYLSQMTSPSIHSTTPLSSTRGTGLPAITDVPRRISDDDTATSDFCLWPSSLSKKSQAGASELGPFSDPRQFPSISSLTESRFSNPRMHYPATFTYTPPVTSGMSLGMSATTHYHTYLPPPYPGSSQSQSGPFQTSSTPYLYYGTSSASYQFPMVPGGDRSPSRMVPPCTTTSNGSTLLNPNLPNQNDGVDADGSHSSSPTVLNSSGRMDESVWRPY"}, "source": "paper PMC7952723", "target": "Dmrt2 (double-sex and mab-3 related transcription factor 2) (mouse) (UniProt Q8BG36)", "test": "co-IP; cell lysates immunoprecipitated with anti-Flag antibody, then immunoblotted with anti-HA antibody; cell type not stated", "note": "Results are given in words; binding and its absence hold for the method and conditions named. In cells and extracts the contact can be indirect. Some binding calls cover weakened binding; strength is not graded here.", "data": [{"substance": "Runx2 (runt-related transcription factor 2) (from UniProt Q08775 1-607)", "values": [{"measurement": "binding", "value": "binds"}]}]}
